The values below come from doi:10.1101/835280.

No constants are given. Whether binding was seen depends on the method and setting.

This test deals with N-terminal domain of KaiA (residues 1-135) (Synechococcus elongatus PCC 7942) (UniProt Q79PF6). As to the kind of experiment: SEC. A general note: In gel filtration, larger molecules generally elute earlier.

B1: N-terminal domain of KaiA (residues 1-135) (domain or fragment, UniProt Q79PF6 1-135)
chain: MLSQIAICIWVESTAILQDCQRALSADRYQLQVCESGEMLLEYAQTHRDQIDCLILVAANPSFRAVVQQLCFEGVVVPAIVVGDRDSEDPDEPAKEQLYHSAELHLGIHQLEQLPYQVDAALAEFLRLAPVETMA
For B1, the binding result is reported as “no binding”.
